Data set [1] can be described thus: general procedure: Fmoc solid-phase peptide synthesis; Rink amide 4-methylbenzhydrylamine resin.
The test system of a further data set is U2OS cells. The experiment in a line: Cellular uptake of fluorescent probes, live-cell microscopy. In kind it is cell-based, human. How it is done:
For studies of the general internalization properties of ARCs, the cells were seeded at the density of 12,000–25,000 cells per well onto an Ibidi μ-plate (96-well; Ibidi GmbH, Planegg, Germany). After 24 h incubation in growth medium, the cells were treated for 10 min, 30 min, or 1 h with dilutions of compounds 6, 7, 8, or ARC-2090 (5 μM, 2.5 μM, or 1 μM final concentration) in the phenol red-free DMEM/Ham’s F12 medium supplemented with 2% ccFBS and 2 mM glutamine. Next, cells were washed twice with PBS, and imaging medium (MEMO + Supplement A 1:100) was applied subsequently. Cells were imaged with Cytation 5 wide-field microscope (BioTek; Winooski, VT, USA) using 20× air objective and the following settings: for Cy5, 623 nm LED (intensity: 2) and Cy5 filter cube (685 nm) with 104 ms integration time and detector gain value of 2; for TAMRA, 523 nm LED (intensity: 7) and RFP filter cube (593 nm) with 252 ms integration time and detector gain value of 16; for bright-field, white LED with intensity 6, 186 ms integration time and detector gain value of 15. Four independent experiments were performed.

Another data set relates to panel of 140 PKs. The experiment in a line: Kinase selectivity profiling, panel metrics. As to conditions: 1 µM compound; for Gini coefficient: 139 or 140 PKs; for hit rate: fraction of PKs with residual activity below 50%. In kind it is biochemical, human. How it is done: Kinase selectivity profiling was performed using the commercial service provided by the MRC PPU International Centre for Kinase Profiling (Dundee, UK) using a radiometric filter-binding assay. Kinases used for analysis were of human origin. The ATP concentration applied for inhibition measurements was at or below the ATP KM value of the particular PK. ARC-3125 and ARC-3126 were screened against 139 PKs, whereas compounds 1, 2, and 8 were screened against 140 PKs. The final total concentration of inhibitors in the selectivity panel was 1 µM. Residual activities were expressed as the percentage of retained activity compared to the control without inhibitor.
From the residual activities, values of the Gini coefficient and hit rate were calculated for each individual compound. The Gini coefficient is a single-value metric whose value for a specific inhibitor depends on the number and origin of the PKs in the panel, but also on concentration of the tested compound [70]. Hit rate is the number of kinases inhibited by over 50%.

For some assays here: HELM strings list residues between dots; [ac] is acetyl, [am] amide, other brackets name non-standard units. Square brackets hold non-standard residues; d marks the D form. Peptide text beside a SMILES is read from it. * marks the point of attachment. X3 = O=C(CCCCCNCc1nc2c(sc3cc(Br)cnc32)c(=O)[nH]1)*

On to “BBTP-Tap-(D-Arg)2-Gly-D-Arg-[D-Lys(5-TAMRA)]-NH2”, for which, in data set [1] (560 nm), the “final HPLC purity” value is recorded as 96%. Take “PEPTIDE1{[dR].[dR].G.[dR].[dK].[am]}$$$$V2.0”: the “final HPLC purity” value in data set [1] (whole synthesis, 206 nm) came to 96%.

On to `CN1C(=CC=CC=CC2=[N+](CCCCCC(=O)NCCCC[C@@H](NC(=O)[C@@H](CCCNC(=N)N)NC(=O)CNC(=O)[C@@H](CCCNC(=N)N)NC(=O)[C@@H](CCCNC(=N)N)NC(=O)CCCCc3cn(Cc4nc5c(sc6ccc(Br)cc65)c(=O)[nH]4)nn3)C(N)=O)c3ccccc3C2(C)C)C(C)(C)c2ccccc21` [Compound 7, BBTP-Tap-(D-Arg)2-Gly-D-Arg-[D-Lys(Cy5)]-NH2], for which the intracellular localization result in the data set with U2OS cells is given as “mainly perinuclear vesicular localization”.

“BBTP-Aoc-(D-Arg)2-Gly-D-Arg-[D-Lys(Cy5)]-NH2”: the “final HPLC purity” value in data set [1] (conjugation step, 650 nm) was 97.4%. BBTP-Aoc-(D-Arg)2-Gly-D-Arg-D-Lys-NH2: the “final HPLC purity” value in data set [1] (whole synthesis, 342 nm) was 97.2%.

Regarding “BBTP-Tap-(D-Arg)2-Gly-D-Arg-[D-Lys(Cy5)]-NH2”, in data set [1] (conjugation step, 650 nm), the “final HPLC purity” value came out at 98.4%. Regarding `CN1C(=CC=CC=CC2=[N+](CCCCCC(=O)NCCCC[C@@H](NC(=O)[C@@H](CCCNC(=N)N)NC(=O)CNC(=O)[C@@H](CCCNC(=N)N)NC(=O)[C@@H](CCCNC(=N)N)NC(=O)CCCCCCCNCc3nc4c(sc5ccc(Br)cc54)c(=O)[nH]3)C(N)=O)c3ccccc3C2(C)C)C(C)(C)c2ccccc21` [Compound 6, BBTP-Aoc-(D-Arg)2-Gly-D-Arg-[D-Lys(Cy5)]-NH2], in the data set on U2OS cells, the intracellular localization entry is “mainly perinuclear vesicular localization”. In the data set on panel of 140 PKs, `N=C(N)NCCC[C@@H](NC(=O)CNC(=O)[C@@H](CCCNC(=N)N)NC(=O)[C@@H](CCCNC(=N)N)NC(=O)CCCCCCCNCc1nc2c(sc3cc(Br)cnc32)c(=O)[nH]1)C(=O)N[C@H](CCCCN)C(N)=O` [Compound 1, BPTP-Aoc-(D-Arg)2-Gly-D-Arg-D-Lys-NH2] returned a Gini coefficient of 0.887 and a hit rate of 0.022. As for BPTP-Aoc-(D-Arg)2-Gly-D-Arg-D-Lys-NH2, the “final HPLC purity” value in data set [1] (whole synthesis, 307 nm) stood at 96.1%. On to BBTP-Amt-(D-Arg)2-Gly-D-Arg-D-Lys-NH2, for which the “final HPLC purity” value in data set [1] (whole synthesis, 342 nm) came out at 97.5%.

In the data set on panel of 140 PKs, `N=C(N)NCCC[C@@H](NC(=O)CNC(=O)[C@@H](CCCNC(=N)N)NC(=O)[C@@H](CCCNC(=N)N)NC(=O)CCCCCCCNCc1nc2c(sc3ccc(Br)cc32)c(=O)[nH]1)C(=O)N[C@H](CCCCN)C(N)=O` [Compound 2, BBTP-Aoc-(D-Arg)2-Gly-D-Arg-D-Lys-NH2] returned a Gini coefficient of 0.824 and a hit rate of 0.079. For the compound `N=C(N)NCCC[C@@H](NC(=O)CCCCCNCc1nc2c(sc3cc(Br)cnc32)c(=O)[nH]1)C(=O)N[C@H](CCCNC(=N)N)C(=O)N[C@H](CCCNC(=N)N)C(=O)N[C@H](CCCNC(=N)N)C(=O)N[C@H](CCCNC(=N)N)C(=O)N[C@H](CCCNC(=N)N)C(=O)N[C@H](CCCCN)C(N)=O` [ARC-3126, BPTP-Ahx-(D-Arg)6-D-Lys-NH2] (X3-[dR][dR][dR][dR][dR][dR][dK]-NH2), in the data set with panel of 140 PKs, the Gini coefficient turned out to be 0.73 and the hit rate stood at 0.09.

Take BBTP-Tap-(D-Arg)2-Gly-D-Arg-D-Lys-NH2: the “final HPLC purity” value in data set [1] (whole synthesis, 342 nm) is 96.1%.

In the data set with panel of 140 PKs, `CN(C)c1ccc2c(c1)Oc1cc(N(C)C)ccc1C21OC(=O)c2cc(C(=O)NCCCC[C@@H](NC(=O)[C@@H](CCCNC(=N)N)NC(=O)CNC(=O)[C@@H](CCCNC(=N)N)NC(=O)[C@@H](CCCNC(=N)N)NC(=O)CCCCc3cn(Cc4nc5c(sc6ccc(Br)cc65)c(=O)[nH]4)nn3)C(N)=O)ccc21` [Compound 8, BBTP-Tap-(D-Arg)2-Gly-D-Arg-[D-Lys(5-TAMRA)]-NH2] gave a Gini coefficient of 0.682 and a hit rate of 0.066.

Consider BPTP-Ahx-(D-Arg)6-D-Lys-NH2, for which the “final HPLC purity” value in data set [1] (whole synthesis, 307 nm) is 98.3%. With “BBTP-Hyp-Aoc-(D-Arg)2-Gly-D-Arg-D-Lys-NH2”, the “final HPLC purity” value in data set [1] (whole synthesis, 342 nm) was 97.3%.

(Values after article PMC8307404 (Molecules, 2021).)
